# Measured values reported in publication PMC11161644, “An effective and rapidly degradable disinfectant from disinfection byproducts” (Nature Communications, 2024).
# Values joined by “and” are separate entries in the source; they are usually repeats but may differ in a detail not shown here. Equal values may be shown once. This continues a long series; more values of the same kind are listed elsewhere.
# Test system: P. dumerilii embryos
# Assay: Developmental toxicity assay with P. dumerilii embryos, dilution factor of in-use concentration (EC50,DF), also after degradation in darkness
# Format: in vivo, Platynereis dumerilii
# Conditions: 2,6-DCQ
# From the text: The DBP doses for 3-log E. coli reduction (pH 7.2) were set as the in-use concentrations, which were serially diluted and added to the P. dumerilii embryos at 12-h postfertilization. A dilution factor was defined as the ratio of the in-use concentration to the exposure concentration. Each exposure set contained a control sample (i.e., the embryos at 12-h postfertilization developed in seawater without the addition of DBPs). By 24-h postfertilization, normally developed embryos should have reached the first larval stage. An inverted stereomicroscope (×40 magnification) was used to observe the larvae. The normal development percentage was calculated as the ratio of normally developed embryos to total embryos. By plotting the curve of the normal development percentage versus the dilution factor, the EC50,DF value (i.e., the dilution factor corresponding to 50% of the normal development percentage of the control sample) was obtained using SigmaPlot 12. The developmental toxicity test was conducted in duplicate.
structure (smiles),measurement,setting,value
"O=C1C=C(Cl)C(=O)C(Cl)=C1 [2,6-DCQ, 2,6-dichlorobenzoquinone]",Normal development,"degradation 1 h, dilution factor 21.3333",85% and 82.8358%
same,Normal development,"degradation 1 h, dilution factor 32",86.087% and 85%
same,Normal development,"degradation 2 h, dilution factor 21.3333",84.4901% and 85.7801%
same,Normal development,"degradation 4 h, dilution factor 6.4",84.9579% and 81.2687%
same,Normal development,"degradation 6 h, dilution factor 2.1333",82.0063% and 83.8851%
same,Normal development,"degradation 24 h, dilution factor 1.28",76.9034% and 75.824%
same,Normal development,"degradation 48 h, dilution factor 0.512",85.2896% and 79.5958%
same,Normal development,"degradation 48 h, dilution factor 0.64",86.9401% and 87.7077%
